The values below come from PubChem BioAssay AID493014 (National Center for Advancing Translational Sciences (NCATS), 2011).

The nature of this test: qHTS Assay to Find Inhibitors of Chronic Active B-Cell Receptor Signaling. To be noted: ABC-DLBCL IkBa-CBG/CBR reporter, luminescence ratio (green luciferase fused to IkBa over red control in TMD8 lymphoma cells), 4 h. Put shortly: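 Concentration-response series (up to 46 uM) were applied to TMD8 dual-reporter cells for 4 h at 37C with doxycycline. Green/red ratio, after filter-overlap correction, defined %Activity; red signal alone was normalised to basal cells and zero luminescence.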

Where [1] appears, read: measured here: CBR red luminescence, cell number.
Setting [2] is: measured here: IkBa-CBG green luminescence.

Some of the results follow. Further columns of the screen follow, without active or inactive calls. Compounds called inactive in the main read-out are mostly missing here. The note in brackets gives the kind of curve behind each potency; many fits are weak.

As to `Cc1ccc(N/C(N)=N/c2nc(CSc3nnc(C)s3)cc(=O)[nH]2)c(C)c1`, the AC50 is, setting by setting: under setting [1], 3.16 µM [rising, partial curve, poor fit]; under setting [2], 6.31 µM [falling, single point].

For `COc1ccc(C(=NNc2ccccc2C(=O)O)c2ccc(OC)cc2)cc1`, under setting [1], the AC50 is 23.1 µM [falling, partial curve, poor fit].

Regarding `CCc1cc(C(N)=O)c(NC(=O)c2ccc(OC)cc2)s1`, the AC50 under setting [1] was 1.84 µM [rising, partial curve, poor fit].

As for `Cc1c(-n2cc(C(=O)c3cc(Br)ccc3O)cc(C#N)c2=O)c(=O)n(-c2ccccc2)n1C`, the AC50 under setting [1] was 6.51 µM [falling, single point].

Consider `CC1CC(C)CN(C(=O)COC(=O)CCCN2C(=O)c3cccc4cccc(c34)C2=O)C1` (configuration not stated), for which the AC50 under setting [1] was 0.562 µM [rising, full curve, poor fit].

`CCCc1cc(C(=O)Nc2ccc(F)c(Cl)c2)no1`: the AC50 under setting [1] is 8.91 µM [falling, partial curve].

Turning to `CCc1nccn1CCC(=O)NC1CCCc2c1cnn2-c1ccc(F)cc1F` (configuration not stated), the AC50 under setting [1] was 15.8 µM [rising, partial curve, poor fit].

For `CC1C(=O)Nc2ccc(S(=O)(=O)NCCc3ccc(Cl)cc3)cc2NC1=O` (configuration not stated), under setting [1], the AC50 is 20 µM [falling, single point].

For `Cc1cc(C)nc(NS(=O)(=O)c2ccc(NC(=O)NC3CCCCC3)cc2)n1`, the AC50 under setting [1] was 2.06 µM [rising, partial curve, poor fit].

Take `COC(=O)[C@]1(Cc2ccccc2)N[C@H](c2ccc(-c3ccc(F)cc3)cc2)[C@@H]2C(=O)N(C)C(=O)[C@@H]21`: the AC50 under setting [1] is 23.1 µM [falling, single point].

Turning to `Cc1csc(NC(=O)CNC(=O)OCc2ccccc2)n1`, the AC50 under setting [1] was 11.2 µM [falling, partial curve, poor fit].

Consider `CN1/C(=C/c2cc[n+](C)c3ccccc23)C=Cc2ccccc21`, for which the concentration at half-maximal activity (AC50) under setting [1] is 2.24 µM [rising, full curve, poor fit].

Take `COc1ccccc1NC(=O)c1cc2c(CO)cnc(C)c2oc1=Nc1ccc(OC)c(OC)c1`: under setting [1], the AC50 is 2.24 µM [rising, partial curve, poor fit].

Take `Cc1ccc2cc(CN(CC(C)C)S(=O)(=O)c3ccccc3)c(=O)[nH]c2c1`: the AC50 under setting [1] was 0.794 µM [falling, full curve, poor fit].

For the compound `Cc1cc(OCC(=O)NCCCN(C)C)cc(C)c1Br`, the concentration at half-maximal activity (AC50) under setting [1] was 15.8 µM [falling, partial curve, poor fit].

With `Cc1ccc(-n2c(Cc3noc4ccccc34)n[nH]c2=S)cc1`, the AC50 under setting [1] was 1.26 µM [falling, full curve].

Turning to `C(=N\N1CCN(c2ccccn2)CC1)/c1ccccn1`, the AC50 under setting [1] is 35.5 µM [falling, single point].

Turning to `CCCSc1nnc(NC(=O)Nc2ccccc2)s1`, the AC50 under setting [1] was 0.731 µM [rising, full curve, poor fit].

Turning to `COc1ccccc1N1CCN(C(=O)c2sc3nc(C)nc(N4CCN(c5ccccn5)CC4)c3c2C)CC1`, the AC50 under setting [1] was 20 µM [falling, single point].

On to `Cc1ccc(S(=O)(=O)c2ccccc2)cc1S(=O)(=O)N1CCOCC1`, for which the AC50 under setting [1] is 23.1 µM [rising, single point].

For the compound `O=C(Oc1ccnc2cc(Cl)ccc12)N1CCCCCC1`, the AC50 under setting [1] was 35.5 µM [falling, single point].

Turning to `CCN(CC)C(=O)COc1ccc(/C(C)=N/NC(=O)c2ccccc2Br)cc1`, under setting [1], the half-maximal activity concentration (AC50) is 11.2 µM [falling, partial curve].

For the compound `O=S(=O)(c1ccc(SCCOc2cccc(Br)c2)nc1)N1CCCC1`, the AC50 under setting [1] is 7.31 µM [falling, partial curve].

`Nc1nc(SCC(=O)O)[nH]c(=O)c1NC(=O)c1ccccc1F`: under setting [1], the AC50 was 0.631 µM [rising, full curve, poor fit].

Take `CCOC(=O)C1=CN(CC)S(=O)(=O)NC1CCc1ccccc1` (configuration not stated): the AC50 under setting [1] is 29.1 µM [falling, single point].

As to `CCOc1ccccc1NC(=O)c1cc(C(=O)c2cc(OC)ccc2O)coc1=N`, the AC50 under setting [1] was 18.4 µM [falling, partial curve, poor fit].

With `COc1ccccc1Nc1ncc(C(=O)Nc2ccc(OC)c(OC)c2)c2ccccc12`, under setting [1], the AC50 is 20.6 µM [rising, partial curve, poor fit].

For `Cc1ccc(N2CC(C(=O)Nc3ccc(C)c(S(=O)(=O)N(C)C)c3)CC2=O)cc1` (configuration not stated), the AC50 under setting [1] is 14.1 µM [falling, single point].

`Cn1c(SCC(=O)Nc2ccc(NC(=O)c3cccc(F)c3)cc2)nnc1-c1ccncc1`: the AC50 under setting [1] is 7.94 µM [rising, partial curve, poor fit].

Take `O=c1[nH]nc(CNc2ccc(OC(F)(F)F)cc2)c2ccccc12`: the AC50 under setting [1] was 5.62 µM [rising, single point].

On to `CC(C)c1csc(CN2CCC(N3CCC(C(=O)NCC4CCCO4)CC3)CC2)n1` (configuration not stated), for which, under setting [1], the AC50 was 5.62 µM [rising, partial curve, poor fit].

`CCCN1CN(Cc2ccccc2)CC2=C1CC(C)(C)CC2=O`: the AC50 under setting [1] was 0.316 µM [falling, full curve, poor fit].

Regarding `O=C(CSc1ncnc2[nH]ncc12)Nc1cccc(Oc2ccccc2)c1`, under setting [1], the concentration at half-maximal activity (AC50) was 25.1 µM [falling, single point].

Turning to `Cc1ccc(/C=C/C(=O)NCc2cccs2)c(C)c1`, the AC50 under setting [1] is 28.2 µM [falling, single point].

As to `C/C(=N\NC(=O)c1cc(C)[nH]n1)c1ccc(-c2ccccc2)cc1`, the AC50 under setting [1] is 5.62 µM [rising, full curve].

Take `CCOP(=O)(OCC)/C(=N/OC(=O)c1ccc(OC)cc1)C(N)=O`: under setting [1], the half-maximal activity concentration (AC50) was 35.5 µM [rising, single point].

For the compound `COc1ccccc1C(=O)NNC(=O)c1ccc(Br)cc1`, the AC50 under setting [1] is 10 µM [falling, single point].

Regarding `O=C(/C=C/c1ccccc1)Nc1cccnc1Oc1ccccc1F`, the AC50 under setting [1] is 7.08 µM [falling, partial curve].

`COc1ccc(S(=O)(=O)Nc2cccc(-c3ccc4nncn4n3)c2)cc1F`: the AC50 runs as follows: under setting [1], 35.5 µM [rising, single point]; under setting [2], 22.4 µM [falling, single point].

For the compound `Cc1nc2ccccc2c(=O)n1/N=C/c1c(O)ccc2ccccc12`, the AC50 under setting [1] is 8.91 µM [falling, partial curve].

`Cc1noc(C)c1Cn1nc(C(=O)O)c2ccccc2c1=O`: the AC50 under setting [1] is 11.2 µM [rising, single point].

Take `CCN1C(=S)SC(=O)C1=C1C=C(C)N(CCO)C(C)=C1`: the AC50 under setting [1] was 3.98 µM [rising, full curve, poor fit].

In the case of `Cc1ccc(-n2c(C)nc3oc4ccccc4c(=O)c3c2=O)cc1`, the half-maximal activity concentration (AC50) under setting [1] was 2.82 µM [falling, full curve, poor fit].

As for `Cc1sc2ncn(CC(=O)N(CC(=O)NC3CCCC3)Cc3cccs3)c(=O)c2c1C`, the half-maximal activity concentration (AC50) under setting [1] is 15.8 µM [rising, single point].

With `Cc1cccc(C(=O)Nc2cccc3cccnc23)c1`, the AC50 under setting [1] was 2.82 µM [rising, partial curve, poor fit].

For `CCN(CC)c1ccc(/C=C(/C#N)c2nc3ccccc3[nH]2)c(OC(C)C)c1`, the AC50 under setting [1] is 1.41 µM [falling, full curve, poor fit].

For `COc1ccc(Cl)cc1C(=O)NNC(=O)c1ccc(F)c(S(=O)(=O)N2CCOCC2)c1`, under setting [1], the AC50 is 16.4 µM [falling, partial curve, poor fit].

As for `Cc1ccc(S(=O)(=O)NNC(=O)CCC(=O)Nc2ccc(C)c(C)c2)cc1`, under setting [1], the AC50 is 22.4 µM [falling, single point].

Regarding `NS(=O)(=O)c1cccc(NC(=O)c2cccnc2Oc2ccccc2)c1`, the AC50 is 7.94 µM [rising, partial curve] under setting [1] and 14.1 µM [falling, partial curve, poor fit] under setting [2].

Regarding `COC(=O)c1cc(C#N)c(N(C)Cc2ccccc2)nc1C`, the AC50 runs as follows: under setting [1], 29.1 µM [rising, single point]; under setting [2], 8.2 µM [falling, partial curve, poor fit].

Take `CCOc1cc(C(=O)NN=C2CCCC2)cc(OCC)c1OCC`: the AC50 is 22.4 µM [rising, single point] under setting [1] and 17.8 µM [falling, single point] under setting [2].

For the compound `Cc1ccc(OCC(O)CN2CCN(c3ccccc3)CC2)cc1` (configuration not stated), under setting [1], the AC50 is 7.08 µM [rising, partial curve].

Take `CC(C)c1ccccc1NC(=O)c1ccc2ncsc2c1`: under setting [1], the AC50 is 10 µM [falling, partial curve].

For the compound `O=C(Oc1coc(CSc2nnc(NC(=O)C3CC3)s2)cc1=O)c1c(F)cccc1F`, the AC50 under setting [1] was 17.8 µM [falling, single point].

Take `Cc1cc(NC(=O)CCC2CCCC2)no1`: the AC50 under setting [1] was 29.1 µM [rising, single point].

For `CCN1CCCC1Cn1cnc2c([nH]c3ccc(Cl)cc32)c1=O` (configuration not stated), the concentration at half-maximal activity (AC50) under setting [1] was 7.94 µM [falling, partial curve].

On to `COC(=O)C1=C(C)N=C2SC(C#N)=C(N)N2C1c1ccc(OCc2ccccc2)cc1` (configuration not stated), for which, under setting [1], the AC50 is 29.1 µM [falling, single point].

On to `O=C(Nc1ccc2ccccc2c1)c1ccccc1O`, for which, under setting [1], the AC50 was 1 µM [falling, full curve].

Take `COC(=O)C1(O)CC(CC(C)C)=NN1C(=O)c1ccccc1` (configuration not stated): the AC50 under setting [1] is 3.66 µM [falling, full curve].

Consider `CC1CCN(c2ccccc2NC(=O)c2cc([N+](=O)[O-])ccc2N2CCOCC2)CC1`, for which the AC50 under setting [1] was 2.82 µM [rising, partial curve, poor fit].

On to `CCSc1nnc(NC(=O)NC2CCCCC2)s1`, for which the half-maximal activity concentration (AC50) under setting [1] is 3.98 µM [rising, partial curve, poor fit].

`COc1cc2c(cc1OC)C1O[C@](CCCCN3C(=O)c4ccccc4C3=O)(C2)OC2=C1C(=O)CC(C)(C)C2`: the AC50 under setting [2] was 1.58 µM [rising, partial curve, poor fit].
